Experimental data: publication PMC6749325, “Hybrids of Cinchona Alkaloids and Bile Acids as Antiparasitic Agents Against Trypanosoma cruzi” (Molecules, 2019)

Tested on: T. cruzi Y (DTU II) trypomastigotes
Test: Trypomastigote IC50 estimation, Y strain
Assay type: cell-based, Trypanosoma cruzi
Protocol: The NRK and Vero cell lines were routinely maintained in DMEM (Gibco) supplemented with 10% SFB (Natocor) and Penicillin/Streptomicin (100 Units/0.1mg/mL, Sigma) at 37 °C and 5% CO2 atmosphere. The trypomatigotes of T. cruzi strains CL Brener, Y, and RA were routinely maintained in Vero cells cultured in DMEM supplemented with 4% SFB and Penicillin/Streptomicin. The trypomastigotes of each strain were purified from infected Vero cells supernatants and used in the different assays.
2 × 10^6/mL trypomastigotes were incubated with different concentrations of the hybrids, control drug or vehicle, by triplicate at 37 °C and 5% CO2 for 24 h. Next, trypomastigotes were counted in a Neubauer chamber. The IC50 ± SD (n = 3) were estimated using the “Dose–Response” module in Graphpad Prism.

Row | Structure (SMILES) | fold difference compared to the IC50 value of Bz
1 | C=CC1CN2CCC1CC2C(O)c1cc(CCC(C)C2CCC3C4C(OC(C)=O)CC5CC(OC(C)=O)CCC5(C)C4CCC23C)nc2ccccc12 (centres unmarked) [Hybrid 4f] | 20–30 fold
2 | C=CC1CN2CCC1CC2C(O)c1cc(CCC(C)C2CCC3C4C(O)CC5CC(O)CCC5(C)C4CCC23C)nc2ccccc12 (centres unmarked) [Hybrid 5f] | 20–30 fold
